{"source": "patent US20100221197A1", "about": "“ANTIMICROBIAL AGENT AND EXTERNAL PREPARATION FOR SKIN CONTAINING THE SAME” (TAIYO CORPORATION, priority 2007, published 2010)", "tested_on": "Corynebacterium xerosis (JCM 1971)", "experiment": "Antimicrobial test, growth inhibition minimum concentration", "type": "cell-based", "details": "for all of Corynebacterium xerosis, Staphylococcus aureus and Propionibacterium acnes (Table 1)", "description": "0.5 mL of a previously sterilized medium (brand name: Brain Heart Infusion Liquid Medium supplied by Nihon Pharmaceutical Co., Ltd.) was added into a 96-well deep type microplate, and 0.5 mL of ricinoleic acid monoglyceride or diglycerine ricinoleic acid monoester of the present invention (synthesized in “1. Synthesis Example of ricinoleic acid monoglyceride” and “2. Synthesis Example of diglycerine ricinoleic acid monoester,” respectively) was added thereto and serially prepared so that the final concentration in the medium was 3 ppm, 6 ppm, 12 ppm, 25 ppm, 50 ppm, 100 ppm, 200 ppm and 400 ppm. […] The antimicrobial effect was visually determined, and compared with test plots in which the microorganism had not been added. The test plot in which no turbidity due to growth of the microorganism was observed was determined as the test plot having the antimicrobial effect, and the lowest concentration required for inhibiting the growth of the microorganism (hereinafter referred to as a “growth inhibition minimum concentration”) was measured. As a Comparative Example, the growth inhibition minimum concentration of 4-isopropyl-3-methylphenol known as the antimicrobial agent having a broad antimicrobial spectrum was measured in the same way as in the above. […]", "note": "For at least one compound, name, drawing or mass did not settle the structure.", "data": [{"smiles": "CCCCCC[C@@H](O)C/C=C\\CCCCCCCC(=O)OCC(O)CO", "note": "(some centres unmarked) [ricinoleic acid monoglyceride]", "values": [{"measurement": "growth inhibition minimum concentration relative to that of 4-isopropyl-3-methylphenol", "value": "1/2 to 1/8"}]}, {"smiles": "CCCCCCC(O)CC=CCCCCCCCC(=O)OCC(O)COCC(O)CO", "note": "(centres unmarked) [diglycerin ricinoleic acid monoester, diglycerine ricinoleic acid monoester]", "values": [{"measurement": "growth inhibition minimum concentration relative to that of 4-isopropyl-3-methylphenol", "value": "1/2 to 1/8"}]}]}
